According to article PMC5177601:
Results are given in words; binding and its absence hold for the method and conditions named. Binding seen in cells or lysates may run through a third protein. These calls come from enrichment with a bait or labelling near it, and not all partners need be listed.

Target: T1, FOXA1 (Forkhead box protein A1) (human (endogenous in MCF-7)) (UniProt P55317)
T1 sequence: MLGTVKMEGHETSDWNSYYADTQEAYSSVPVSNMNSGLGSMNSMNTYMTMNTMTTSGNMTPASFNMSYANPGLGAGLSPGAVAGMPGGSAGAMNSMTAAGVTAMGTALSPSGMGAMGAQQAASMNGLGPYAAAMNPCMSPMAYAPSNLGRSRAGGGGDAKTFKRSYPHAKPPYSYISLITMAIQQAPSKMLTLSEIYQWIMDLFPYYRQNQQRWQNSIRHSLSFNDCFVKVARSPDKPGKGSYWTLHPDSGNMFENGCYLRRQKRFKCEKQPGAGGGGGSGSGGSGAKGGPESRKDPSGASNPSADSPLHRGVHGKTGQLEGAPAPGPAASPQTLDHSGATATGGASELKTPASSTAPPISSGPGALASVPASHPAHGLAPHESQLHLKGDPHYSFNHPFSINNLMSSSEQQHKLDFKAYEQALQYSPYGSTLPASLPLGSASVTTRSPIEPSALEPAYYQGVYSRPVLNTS
Test: affinity purification with mass spectrometry; FOXA1 RIME (rapid immunoprecipitation mass spectrometry of endogenous proteins) in asynchronous MCF-7 cells grown in full media; five replicates; matched IgG control RIME; interactors filtered with the CRAPome database

binding: binds
B1: grainyhead-like 2 protein (GRHL2) (protein, UniProt Q6ISB3 1-625)
chain: MSQESDNNKRLVALVPMPSDPPFNTRRAYTSEDEAWKSYLENPLTAATKAMMSINGDEDSAAALGLLYDYYKVPRDKRLLSVSKASDSQEDQEKRNCLGTSEAQSNLSGGENRVQVLKTVPVNLSLNQDHLENSKREQYSISFPESSAIIPVSGITVVKAEDFTPVFMAPPVHYPRGDGEEQRVVIFEQTQYDVPSLATHSAYLKDDQRSTPDSTYSESFKDAATEKFRSASVGAEEYMYDQTSSGTFQYTLEATKSLRQKQGEGPMTYLNKGQFYAITLSETGDNKCFRHPISKVRSVVMVVFSEDKNRDEQLKYWKYWHSRQHTAKQRVLDIADYKESFNTIGNIEEIAYNAVSFTWDVNEEAKIFITVNCLSTDFSSQKGVKGLPLMIQIDTYSYNNRSNKPIHRAYCQIKVFCDKGAERKIRDEERKQNRKKGKGQASQTQCNSSSDGKLAAIPLQKKSDITYFKTMPDLHSQPVLFIPDVHFANLQRTGQVYYNTDDEREGGSVLVKRMFRPMEEEFGPVPSKQMKEEGTKRVLLYVRKETDDVFDALMLKSPTVKGLMEAISEKYGLPVEKIAKLYKKSKKGILVNMDDNIIEHYSNEDTFILNMESMVEGFKVTLMEI
